Experimental data: PubChem BioAssay AID1259424 (University of Nebraska Medical Center, 2018)
Screen: 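Seek colon cancer survival genes behaving like KSR1, using a six-gene signature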 (primary screen). System: human HCT116 colon cancer cells. Knock-down reagent: siRNA pool against human genes, 50 nM. Read-out: 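Six signature mRNAs by branched-DNA multiplex assay, scaled to two housekeeping genes and non-targeting median, log2; matched to mean KSR1 knockdown profile by Pearson correlation and euclidean distance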. Scale: mean correlation with KSR1 profile and KSR1 correlation: higher = expression change more like KSR1 knockdown; mean distance from KSR1 profile: higher = expression change less like KSR1 knockdown.
In all, the deposit lists about 14,000 reagents; this is an unselected part. 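Higher correlation or smaller distance means closer resemblance to KSR1 loss; control wells, including KSR1 knockdowns, recur on many plates.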 Not given: the time to read-out.

target,mean correlation with KSR1 profile,mean distance from KSR1 profile,"KSR1 correlation, replicate 1","KSR1 correlation, replicate 2","KSR1 correlation, replicate 3"
ARHGEF40,-0.265,3.8,-0.214,-0.169,-0.377
NOSIP,-0.0211,3.06,-0.227,-0.111,-0.216
ANO1,-0.186,0.964,-0.4,-0.312,-0.111
GNAI3,0.804,1,0.806,0.788,0.748
GEMIN4,-0.457,3.81,-0.299,-0.41,-0.465
GFRA1,-0.37,2.73,-0.482,-0.209,-0.44
ALG12,-0.0571,1.77,0.181,-0.0622,-0.0731
COL15A1,-0.00122,2.06,0.0935,0.0411,-0.314
TCIM,-0.619,2.22,0.0164,-0.583,-0.826
TCHP,0.183,1.59,-0.204,0.0681,0.59
CARTPT,-0.758,2.56,-0.779,-0.682,-0.487
CALN1,0.00526,2.05,-0.17,-0.153,0.307
PIGK,-0.382,2.67,-0.289,-0.468,-0.378
MCCC2,0.627,0.918,0.684,0.499,0.675
DYRK2,0.348,1.82,0.58,0.136,-0.176
EIF4G2,0.735,3.16,0.72,0.69,0.853
HOMER2,0.116,1.58,0.0426,0.192,0.282
TMPRSS13,0.834,1.16,0.775,0.817,0.825
SLC11A1,0.0592,1.07,0.249,0.0949,-0.33
UBAP2,-0.113,1.32,-0.187,-0.125,0.0596

Targets listed so far whose gene name starts with G or g:
target,mean correlation with KSR1 profile,mean distance from KSR1 profile,"KSR1 correlation, replicate 1","KSR1 correlation, replicate 2","KSR1 correlation, replicate 3"
GNAI3,0.804,1,0.806,0.788,0.748
GEMIN4,-0.457,3.81,-0.299,-0.41,-0.465
GFRA1,-0.37,2.73,-0.482,-0.209,-0.44
